From patent US20260184791A1
No constants are given. Whether binding was seen depends on the method and setting. Some binding calls cover weakened binding; strength is not graded here.

Assays:
[1] = target: T1, human ICOS (protein used in the HTRF assay) (human) (UniProt Q9Y6W8); experiment: HTRF, human IgG1 in HEK supernatant
T1 sequence: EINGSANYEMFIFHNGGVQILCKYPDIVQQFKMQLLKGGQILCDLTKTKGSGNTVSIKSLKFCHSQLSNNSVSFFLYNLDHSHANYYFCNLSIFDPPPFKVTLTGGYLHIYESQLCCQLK

[2] = target: T2, mouse ICOS (protein used in the HTRF assay) (mouse) (UniProt Q9WVS0); experiment: HTRF, human IgG1 in HEK supernatant
T2 sequence: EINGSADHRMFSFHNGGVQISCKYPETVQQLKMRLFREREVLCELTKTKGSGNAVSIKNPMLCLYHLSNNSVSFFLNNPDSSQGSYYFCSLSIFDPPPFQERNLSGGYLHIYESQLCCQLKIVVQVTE

[3] = target: mouse ICOS expressed on the surface of CHO-S cells (mouse) (UniProt Q9WVS0); experiment: Mirrorball, CHO-S cells expressing ICOS
[4] = target: mouse ICOS expressed on the surface of CHO-S cells (mouse) (UniProt Q9WVS0); experiment: flow cytometry, CHO-S cells expressing ICOS, purified IgG1

Measured: binding

B1: CL-61091 (antibody, human IgG1, V domains shown)
VH: QVQLMQSGTEVKKPGASVKVSCKTSGYTFTTYGITWVRQAPGQGLEWMGWISAYSGDTDYAQKFQGRVTVTTDTSTNTAYMELRSLKSDDTAVYYCARSSGWPHHYGMDVWGQGTTVTVSS
VL: DIVMTQSPLSLPVTPGEPASISCRSSQSLLHSNGFNYFDWYLQKPGQSPQLLIFLVSNRASGVPDRFSGSGSGTDFTLKISRVEAEDVGIYYCMQALQTPLTFGGGTKVEIK
binds: all assays above
